Laboratory results taken from PubChem BioAssay AID743266 (National Center for Advancing Translational Sciences (NCATS), 2014).
Among all 410,000 compounds or so, about 310 (0.076%) were called active. The shares of active, inactive and inconclusive entries below differ from those in the screen. Calls follow the shape of the dose curve; as a rule, active = well fitted activation curve with a large enough effect; inconclusive = small, poorly fitted or top-dose-only effect, or another doubt; inactive = no such curve, though single readings can be large or run the other way. A potency beside an inconclusive call is a rough fit, not a confirmed value. Non-standard residues stand in square brackets, D forms with d. Residues, ends and D or L forms follow the SMILES beside them. ξ: configuration not given here. *: point of attachment. ξNMe2Val = CC(C)C(C(=O)*)N(C)C; NMeV = CN[CH](C(=O)O)C(C)C; NHBn = c1ccc(CN*)cc1

By UniProt entry, the sequences of proteins in these tests, tags left out. Where a name states a change or a piece, a line headed by the entry shows the natural chain unless it says otherwise.
UniProt Q03431: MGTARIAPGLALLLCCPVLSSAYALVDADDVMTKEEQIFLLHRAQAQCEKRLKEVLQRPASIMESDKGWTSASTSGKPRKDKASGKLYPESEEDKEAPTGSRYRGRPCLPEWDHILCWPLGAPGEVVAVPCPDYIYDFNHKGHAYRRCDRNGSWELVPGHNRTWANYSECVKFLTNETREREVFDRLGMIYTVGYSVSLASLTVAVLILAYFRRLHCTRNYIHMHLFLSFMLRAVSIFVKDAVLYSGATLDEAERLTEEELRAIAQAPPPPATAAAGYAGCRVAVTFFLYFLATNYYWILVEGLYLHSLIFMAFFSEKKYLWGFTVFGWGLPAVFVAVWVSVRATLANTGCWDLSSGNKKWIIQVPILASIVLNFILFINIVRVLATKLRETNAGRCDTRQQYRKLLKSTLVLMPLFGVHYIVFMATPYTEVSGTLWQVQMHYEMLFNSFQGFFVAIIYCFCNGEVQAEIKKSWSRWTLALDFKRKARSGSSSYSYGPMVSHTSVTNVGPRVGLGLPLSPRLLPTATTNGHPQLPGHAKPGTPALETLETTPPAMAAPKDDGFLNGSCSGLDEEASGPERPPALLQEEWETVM

biological target: Parathyroid hormone/parathyroid hormone-related peptide receptor (Homo sapiens) (UniProt Q03431); test: qHTS for PTHR1 Agonists: Primary Screen; conditions: HEK293 GP2 PTHR1 cells, GloSensor cAMP luminescence, 1 h; activation: at 115 µM (top of the series) unless noted; series mostly up to 115 µM; also: nearly all actives have a fitted effect of over 55% in size
In short: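 HEK-293-derived GP2 cells expressing PTHR1 and a GloSensor cAMP reporter, 3,000/well, plated overnight, given luciferin plus IBMX (each 0.5 mM as added) for 1 h at 37 °C, then compound for 1 h at 37 °C. Luminescence was read after 15 min at room temperature.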
Potency is read from the fitted curve at half-maximal effect.

SMILES | Potency | activation
COC[C@H]1OC(=O)c2coc3c2[C@@]1(C)C1=C(C3=O)[C@@H]2CCC(=O)[C@@]2(C)C[C@H]1OC(C)=O | inconclusive: 56.2 µM [activator, partial curve, poor fit] | –
CNCCc1ccc(O)c(O)c1 | inconclusive: 25.1 µM [activator, partial curve, poor fit] | –
O=Cc1cn(Cc2cccc([N+](=O)[O-])c2)c2ccccc12 | inactive | –
O=c1[nH]c2ccccc2c(=O)n1-c1cccc(Cl)c1 | inactive | –
COc1cc(C(c2c(O)c3ccccc3oc2=O)c2c(C)n(C)n(-c3ccccc3)c2=O)ccc1OCC(=O)O (configuration not stated) | – | inconclusive: 38.4% [activator]
COC(=O)C1=C(c2ccc(F)cc2OCc2ccccc2)C[C@@H]2CC[C@H]1N2C(=O)NCCO | inactive | –
COc1ccc(-c2coc3c(C(=O)Nc4cc(OC)c(OC)c(OC)c4)cccc23)c(C)c1 | inactive | –
CCCCC[C@H]1CCCCC[C@H](O)C[C@H](O)[C@@H](O)/C=C/C(=O)O1 | inactive | –
CC(=O)O[C@H]1C(=O)[C@@]2(C)C([C@H](OC(=O)c3ccccc3)[C@]3(O)C[C@H](OC(=O)[C@H](O)[C@@H](NC(=O)Cc4ccccc4)c4ccccc4)C(C)=C1C3(C)C)[C@]1(OC(C)=O)CO[C@@H]1C[C@@H]2O (some centres not stated) | inactive | –
CN(CCc1ccccc1)C(=O)c1ccc(NC(=O)Cc2cccc([N+](=O)[O-])c2)cc1 | inactive | –
CN1CC[C@]23c4c5ccc(O)c4OC2C(O)C=CC3[C@H]1C5 (some centres not stated) | – | inconclusive: 29.8% [activator]
O=C(O)CCn1cc(C=C2C(=O)NC(=O)NC2=O)c(-c2cc3ccccc3oc2=O)n1 | inconclusive: 50.1 µM [activator, single point] | –
CC(=O)Nc1ccc(C(c2c(O)c3ccccc3oc2=O)c2c(C)n(C)n(-c3ccccc3)c2=O)cc1 (configuration not stated) | – | inconclusive: -59% [activator]
CC(C)C(NC(=O)C(C(C)C)N(C)C)C(=O)N(C)C(C(=O)N1CCCC1C(=O)N1CCCC1C(=O)NCc1ccccc1)C(C)C (configuration not stated) (ξNMe2Val-V[NMeV]PP-NHBn; configuration not given here) | inconclusive: 0.767 µM [activator, full curve] | –
Cc1cccc(CSc2nc3c(cc2C#N)CN(C)CC3)c1 | inconclusive: 35.5 µM [activator, partial curve, poor fit] | –
C=CCn1c(O)c(C(C)=NC2CCN(Cc3ccccc3)CC2)c(=O)[nH]c1=O | inconclusive: 28.2 µM [activator, single point] | –
Cc1ccc(NC(=O)CSc2nc(-c3ccco3)cc(C(F)(F)F)n2)c(C)c1 | inconclusive: 141 µM [activator, single point] | –
Nc1ccccc1C(=O)OCC(=O)N1CCc2ccccc21 | inactive | –
C[C@H]1CC[C@H]2NCCN[C@H]2C1 | inconclusive: 17.8 µM [activator, partial curve, poor fit] | –
CC[C@@]1(C(=O)OC)N[C@H](CN(C)C(=O)Nc2ccc(OC)cc2)[C@@H]2C(=O)N(Cc3ccccc3)C(=O)[C@@H]21 | inconclusive: 50.1 µM [activator, single point] | –
CNP1(NC)=NC(C(F)(F)F)=NC(C(F)(F)F)=N1 | inconclusive: 22.4 µM [activator, partial curve, poor fit] | –

SMILES | Potency | activation
Cc1ccc(N2C(=O)NC(=O)/C(=C\C=C\c3ccco3)C2=O)cc1 | inactive | –
Cc1ccc(C(=O)NC2CC3CCC(C2)N3)cc1 (configuration not stated) | inconclusive: 112 µM [activator, partial curve, poor fit] | –
CC12CCC(=O)C=C1C=CC1C2CCC2(C)C(O)CCC12 (configuration not stated) | inactive | –
N[C@@H](Cc1c[nH]c2ccccc12)c1nnc(SCc2c(F)cccc2Cl)o1 | inconclusive: 56.2 µM [activator, single point] | –
O=C(CCN1CCOCC1)Nc1ccc(Br)cc1C(=O)c1ccccc1 | inconclusive: 3.55 µM [activator, partial curve, poor fit] | –
CCc1ccc(NC(=O)c2cnc3sc(N4CCCC4)nn3c2=O)cc1 | inactive | –
CN(C)c1ccc(NC(=O)CN2C(=O)CN=C(c3ccccc3)c3ccccc32)cc1 | inconclusive: 7.08 µM [activator, full curve, poor fit] | –
O=C(O)COc1ccc(Cl)cc1Cl | – | inconclusive: 48.2% [activator]
CN1/C(=C\C=C2C(=O)NC(=O)NC2=O)C(C)(C)c2ccccc21 | inactive | –
Cc1ccccc1CN1CCN(c2ccc(Cl)cc2)CC1 | inactive | –
CCn1c(NN=O)nc2ccccc21 | inconclusive: 28.2 µM [activator, partial curve, poor fit] | –
COc1ccc2c(c1)CC1(CN2C)C(=O)NC(=O)N(c2ccc(C)cc2)C1=O (configuration not stated) | – | inconclusive: 30.7% [activator] [at 57.5 µM]
c1cnc(OCCN2CC2)cn1 | inconclusive: 100 µM [activator, partial curve, poor fit] | –
CC1CCCC(C2(O)C(=O)Nc3ccccc32)C1=O (configuration not stated) | inconclusive: 3.55 µM [activator, partial curve, poor fit] | –
NCCCCCC(=O)OC1N=C(c2ccccc2Cl)c2cc(Br)ccc2NC1=O (configuration not stated) | inconclusive: 12.6 µM [activator, full curve, poor fit] | –
CN(Cc1ccccc1)C(=O)CN1CCCC1=O | inactive | –
CSc1ccc(C(c2c(O)c3ccccc3oc2=O)c2c(C)n(C)n(-c3ccccc3)c2=O)cc1 (configuration not stated) | inactive | –
O=C(Cc1cc(=O)[nH][nH]1)N/N=C/c1cccc2ccccc12 | inconclusive: 70.8 µM [activator, single point] | –
Cc1ccc(-n2c(O)c(/C=N/NC(=O)c3ccncc3)c(=O)[nH]c2=O)cc1C | – | inconclusive: 30.7% [activator]
O=P(O)(Oc1ccccc1)OC(c1ccccc1)C(F)(F)F (configuration not stated) | – | inconclusive: 31.3% [activator]
Cc1nnc(N2CCC(C(=O)NCc3ccc(N(C)C)cc3)CC2)c2nn(-c3ccccc3)c(C)c12 | inconclusive: 141 µM [activator, single point] | –

2 compounds drawn at random from those above, as already listed:
SMILES | Potency | activation
c1cnc(OCCN2CC2)cn1 | inconclusive: 100 µM [activator, partial curve, poor fit] | –
COc1ccc2c(c1)CC1(CN2C)C(=O)NC(=O)N(c2ccc(C)cc2)C1=O (configuration not stated) | – | inconclusive: 30.7% [activator] [at 57.5 µM]
